{
  "source": "the supplement of paper PMC8256030",
  "note": "Where “and” joins values, the source holds several entries; their conditions need not be identical. Equal values may be shown once. Where a name gives a salt, the structure may show the parent alone. This is one part of the list. Repeats in this data set agree poorly, so a single value says little.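 HEK293T cells were given each compound shortly before transfection with a reporter in which red mCherry is followed by the SARS-CoV-2 frameshift element and then GFP in the −1 frame, so GFP appears only after frameshifting.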",
  "data": [
    {"test_system": "HEK293T", "experiment": "percent viability (nuclei count) relative to control; higher = more viable cells", "conditions": "10 µM; 24 h", "values": [
      {"smiles": "Cc1ccc(NC(=O)c2ccc(CN3CCN(C)CC3)cc2)cc1Nc1nccc(-c2cccnc2)n1", "note": "[imatinib]", "percent viability": "247% and 433%"},
      {"smiles": "O=C(CCNNC(=O)c1ccncc1)NCc1ccccc1", "note": "[nialamide]", "percent viability": "233% and 318%"},
      {"smiles": "CC(Cc1ccccc1)N(C)C(=O)Cn1nc(-c2ccccc2)ccc1=O", "note": "(stereo not drawn) [isamfazone]", "percent viability": "160%"},
      {"smiles": "O=C(O)COc1ccccc1/C=N/NC(=O)c1ccncc1", "note": "[aconiazide]", "percent viability": "27.1%"},
      {"smiles": "NCc1ccc(S(N)(=O)=O)cc1", "note": "[mafenide]", "percent viability": "153%"},
      {"smiles": "COC(=O)C[C@](O)(CCCC(C)(C)O)C(=O)O[C@@H]1C(OC)=C[C@]23CCCN2CCc2cc4c(cc2[C@H]13)OCO4", "note": "[omacetaxine mepesuccinate]", "percent viability": "6.92%"},
      {"smiles": "C=C1[C@H](CO)[C@@H](O)C[C@@H]1n1cnc2c(=O)[nH]c(N)nc21", "note": "[entecavir]", "percent viability": "159%"},
      {"smiles": "CCc1cn([C@H]2C[C@H](O)[C@@H](CO)O2)c(=O)[nH]c1=O", "percent viability": "67.4%"},
      {"smiles": "CO[C@@]1(NC(=O)C2SC(=C(C(N)=O)C(=O)O)S2)C(=O)N2C(C(=O)O)=C(CSc3nnnn3C)CS[C@@H]21", "note": "(stereo partly drawn) [Cefotan]", "percent viability": "105%"},
      {"smiles": "C=C(NC(=O)c1csc(-c2nc3c(cc2O)-c2nc(cs2)C(=O)NC(C(C)O)C(=O)N/C(=C\\C)c2nc(cs2)C(=O)NC2CC(O)C(=O)OCc4cccc5[nH]c(c(C)c45)C(=O)SCC(NC(=O)c4csc2n4)c2nc-3cs2)n1)C(N)=O", "note": "(stereo not drawn) [nosiheptide]", "percent viability": "178%"},
      {"smiles": "CC(COc1ccccc1)N(CCCl)Cc1ccccc1", "note": "(stereo not drawn) [phenoxybenzamine]", "percent viability": "259% and 321%"},
      {"smiles": "CNCCC(Oc1ccccc1OC)c1ccccc1", "note": "(stereo not drawn) [nisoxetine]", "percent viability": "235%"},
      {"smiles": "N#Cc1ccc(C(c2ccc(C#N)cc2)n2cncn2)cc1", "note": "[letrozole]", "percent viability": "136% and 269%"},
      {"smiles": "COc1cccc(CCc2ccccc2OCC(CN(C)C)OC(=O)CCC(=O)O)c1", "note": "(stereo not drawn) [sarpogrelate]", "percent viability": "308%"},
      {"smiles": "O=C(O)COCCN1CCN([C@H](c2ccccc2)c2ccc(Cl)cc2)CC1", "percent viability": "88.5%"},
      {"smiles": "O=C(O)c1cc(-c2ccccc2)nc2ccccc12", "note": "[cinchophen]", "percent viability": "205%"},
      {"smiles": "N=C(N=C(N)N)N1CCOCC1", "note": "[Moroxydine·HCl]", "percent viability": "17.8%"},
      {"smiles": "C1COC(NC(C2CC2)C2CC2)=N1", "note": "[rilmenidine]", "percent viability": "124%"},
      {"smiles": "C[C@H](Cc1cc2c(c(C(N)=O)c1)N(CCCO)CC2)NCCOc1ccccc1OCC(F)(F)F", "note": "[silodosin]", "percent viability": "143%"},
      {"smiles": "C=CC1=C(C(=O)O)N2C(=O)[C@@H](NC(=O)/C(=N\\OCC(=O)O)c3csc(N)n3)[C@H]2SC1", "note": "[Suprax]", "percent viability": "195%"},
      {"smiles": "NS(=O)(=O)c1ccc(-n2nc(C(F)(F)F)cc2-c2ccc(F)cc2)cc1", "note": "[mavacoxib]", "percent viability": "435%"},
      {"smiles": "CCOc1cc(N)c(Cl)cc1C(=O)NCC1CN(Cc2ccc(F)cc2)CCO1", "note": "(stereo not drawn) [mosapride]", "percent viability": "187%"},
      {"smiles": "COC(=O)N/N=C/c1c[n+]([O-])c2ccccc2[n+]1[O-]", "note": "[carbadox]", "percent viability": "145%"},
      {"smiles": "C[S+](CC[C@H](N)C(=O)[O-])C[C@H]1O[C@@H](n2cnc3c(N)ncnc32)[C@H](O)[C@@H]1O", "note": "(stereo partly drawn) [ademetionine]", "percent viability": "188%"},
      {"smiles": "CCN(CC)CCCC(C)Nc1cc(OC)cc2cccnc12", "note": "(stereo not drawn) [pamaquine]", "percent viability": "148%"},
      {"smiles": "C[C@H](N[C@@H](CCc1ccccc1)C(=O)O)C(=O)N1CCC[C@H]1C(=O)O", "note": "[enalaprilat]", "percent viability": "112% and 221%"},
      {"smiles": "CC(C)(N)C(=O)N[C@@H](Cc1c[nH]cn1)C(=O)N[C@H](Cc1ccc2ccccc2c1)C(=O)N[C@H](Cc1ccccc1)C(=O)N[C@@H](CCCCN)C(N)=O", "note": "[ipamorelin]", "percent viability": "18.2%"},
      {"smiles": "CC(C)NNC(=O)COc1ccc(Cl)cc1", "note": "[iproclozide]", "percent viability": "136%"}
    ]}
  ]
}
